Laboratory results reported in the supplement of paper PMC8728848.
This is one part of the list.

Assays:
Assay in all cases: glycan array binding signal (z-score within array); higher = stronger binding
Conditions in all cases: glycan notation: IUPAC condensed, linker removed
Gal3S(b1-4)Glc = target: Gal3S(b1-4)Glc
Outline: (§1)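 Negative Z-scores can be read as non-binding. The Z-score is calculated within each array and then averaged across arrays of one protein sequence at different concentrations or buffers and across linkers. Arrays, 3228 in all, were curated from the Consortium for Functional Glycomics database and kept only where the protein sequence was available.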

Gal3S(b1-4)Glc6S = target: Gal3S(b1-4)Glc6S
Outline: as §1

Gal3S(b1-4)GlcNAc = target: Gal3S(b1-4)GlcNAc
Outline: as §1

[1] = target: Gal3S(b1-4)[Fuc(a1-3)]Glc6S
Outline: as §1

[2] = target: Gal3S(b1-4)[Fuc(a1-3)]GlcNAc
Outline: as §1

[3] = target: Gal3S(b1-4)[Fuc(a1-3)]GlcNAc6S
Outline: as §1

Gal3S4S(b1-4)GlcNAc = target: Gal3S4S(b1-4)GlcNAc
Outline: as §1

Gal3S6S(b1-4)GlcNAc = target: Gal3S6S(b1-4)GlcNAc
Outline: as §1

Gal3S6S(b1-4)GlcNAc6S = target: Gal3S6S(b1-4)GlcNAc6S
Outline: as §1

Gal4S(b1-4)GlcNAc = target: Gal4S(b1-4)GlcNAc
Outline: as §1

Gal4S6S(b1-4)GlcNAc = target: Gal4S6S(b1-4)GlcNAc
Outline: as §1

Gal6P(b1-4)GlcNAc = target: Gal6P(b1-4)GlcNAc
Outline: as §1

Gal6S(b1-3)GlcNAc = target: Gal6S(b1-3)GlcNAc
Outline: as §1

Gal6S(b1-3)GlcNAc6S = target: Gal6S(b1-3)GlcNAc6S
Outline: as §1

Gal6S(b1-4)Glc = target: Gal6S(b1-4)Glc
Outline: as §1

Gal6S(b1-4)Glc6S = target: Gal6S(b1-4)Glc6S
Outline: as §1

Gal6S(b1-4)GlcNAc = target: Gal6S(b1-4)GlcNAc
Outline: as §1

Gal6S(b1-4)GlcNAc6S = target: Gal6S(b1-4)GlcNAc6S
Outline: as §1

GalNAc(a1-3)Gal = target: GalNAc(a1-3)Gal
Outline: as §1

GalNAc(a1-3)GalNAc = target: GalNAc(a1-3)GalNAc
Outline: as §1

[4] = target: GalNAc(a1-3)GalNAc(b1-3)Gal(a1-4)Gal(b1-4)Glc
Outline: as §1

[5] = target: GalNAc(a1-3)GalNAc(b1-3)Gal(a1-4)Gal(b1-4)GlcNAc
Outline: as §1

GalNAc(b1-3)Gal = target: GalNAc(b1-3)Gal
Outline: as §1

[6] = target: GalNAc(b1-3)Gal(a1-4)Gal(b1-4)GlcNAc
Outline: as §1

[7] = target: GalNAc(b1-3)Gal(a1-4)Gal(b1-4)GlcNAc(b1-3)Gal(b1-4)Glc
Outline: as §1

[8] = target: GalNAc(b1-3)Gal(a1-6)Gal(b1-4)Glc
Outline: as §1

GalNAc(b1-3)GalNAc = target: GalNAc(b1-3)GalNAc
Outline: as §1

GalNAc(b1-3)GlcNAc = target: GalNAc(b1-3)GlcNAc
Outline: as §1

GalNAc(b1-4)Gal(b1-4)Glc = target: GalNAc(b1-4)Gal(b1-4)Glc
Outline: as §1

GalNAc(b1-4)GlcNAc = target: GalNAc(b1-4)GlcNAc
Outline: as §1

[9] = target: GalNAc(b1-4)GlcNAc(b1-2)Man
Outline: as §1

[10] = target: GalNAc(b1-4)GlcNAc(b1-2)Man(a1-3)[GalNAc(b1-4)GlcNAc(b1-2)Man(a1-6)]Man(b1-4)GlcNAc(b1-4)GlcNAc
Outline: as §1

[11] = target: GalNAc(b1-4)GlcNAc(b1-3)GalNAc(b1-4)GlcNAc
Outline: as §1

GalNAc(b1-4)GlcNAc6S = target: GalNAc(b1-4)GlcNAc6S
Outline: as §1

GalNAc(b1-6)GalNAc = target: GalNAc(b1-6)GalNAc
Outline: as §1

GalNAc3S(b1-4)GlcNAc = target: GalNAc3S(b1-4)GlcNAc
Outline: as §1

GalNAc3S(b1-4)GlcNAc3S = target: GalNAc3S(b1-4)GlcNAc3S
Outline: as §1

[12] = target: GalNAc3S(b1-4)[Fuc(a1-3)]GlcNAc
Outline: as §1

GalNAc4S6S(b1-4)GlcNAc = target: GalNAc4S6S(b1-4)GlcNAc
Outline: as §1

GalNAc6S(b1-4)GlcNAc = target: GalNAc6S(b1-4)GlcNAc
Outline: as §1

Glc(a1-4)Glc = target: Glc(a1-4)Glc
Outline: as §1

[13] = target: Glc(a1-4)Glc(a1-4)Glc(a1-4)Glc
Outline: as §1

Glc(a1-6)Glc(a1-6)Glc = target: Glc(a1-6)Glc(a1-6)Glc
Outline: as §1

[14] = target: Glc(a1-6)Glc(a1-6)Glc(a1-6)Glc
Outline: as §1

Glc(b1-4)Glc = target: Glc(b1-4)Glc
Outline: as §1

B1: EULS2 M3 (Oryza sativa) (protein)
chain: MVYCRANPNYAMTARNGAVVLAPANPKDEYQHWIKDMRWSTSIKDEEGYPAFALVNKATGQAIKHSLGQSHPVRLVPYNPEVMDESVLWTESRDVGNGFRCIRMVNNIYLNFDAFHGDKYHGGVRDGTDIVLWKLCEGDSLRWKIQPYYILEQKLISEEDLNSAVDHHHHHH
glycan array binding signal (z-score) (Gal3S(b1-4)Glc): 0.605
glycan array binding signal (z-score) (Gal3S(b1-4)Glc6S): 0.657
glycan array binding signal (z-score) (Gal3S(b1-4)GlcNAc): 1.26
glycan array binding signal (z-score) [1]: -0.615
glycan array binding signal (z-score) [2]: -0.349
glycan array binding signal (z-score) [3]: 2.11
glycan array binding signal (z-score) (Gal3S4S(b1-4)GlcNAc): -1.22
glycan array binding signal (z-score) (Gal3S6S(b1-4)GlcNAc): -0.857
glycan array binding signal (z-score) (Gal3S6S(b1-4)GlcNAc6S): -0.157
glycan array binding signal (z-score) (Gal4S(b1-4)GlcNAc): -0.469
glycan array binding signal (z-score) (Gal4S6S(b1-4)GlcNAc): 0.053
glycan array binding signal (z-score) (Gal6P(b1-4)GlcNAc): -0.078
glycan array binding signal (z-score) (Gal6S(b1-3)GlcNAc): -0.51
glycan array binding signal (z-score) (Gal6S(b1-3)GlcNAc6S): -0.209
glycan array binding signal (z-score) (Gal6S(b1-4)Glc): -0.176
glycan array binding signal (z-score) (Gal6S(b1-4)Glc6S): -0.599
glycan array binding signal (z-score) (Gal6S(b1-4)GlcNAc): -0.256
glycan array binding signal (z-score) (Gal6S(b1-4)GlcNAc6S): -0.204
glycan array binding signal (z-score) (GalNAc(a1-3)Gal): -0.616
glycan array binding signal (z-score) (GalNAc(a1-3)GalNAc): 0.278
glycan array binding signal (z-score) [4]: -0.29
glycan array binding signal (z-score) [5]: 0.125
glycan array binding signal (z-score) (GalNAc(b1-3)Gal): 2.46
glycan array binding signal (z-score) [6]: -0.413
glycan array binding signal (z-score) [7]: -0.835
glycan array binding signal (z-score) [8]: 0.011
glycan array binding signal (z-score) (GalNAc(b1-3)GalNAc): 0.575
glycan array binding signal (z-score) (GalNAc(b1-3)GlcNAc): 0.363
glycan array binding signal (z-score) (GalNAc(b1-4)Gal(b1-4)Glc): 0.053
glycan array binding signal (z-score) (GalNAc(b1-4)GlcNAc): 0.011
glycan array binding signal (z-score) [9]: -0.272
glycan array binding signal (z-score) [10]: 1.09
glycan array binding signal (z-score) [11]: 0.295
glycan array binding signal (z-score) (GalNAc(b1-4)GlcNAc6S): -0.368
glycan array binding signal (z-score) (GalNAc(b1-6)GalNAc): -0.069
glycan array binding signal (z-score) (GalNAc3S(b1-4)GlcNAc): -0.239
glycan array binding signal (z-score) (GalNAc3S(b1-4)GlcNAc3S): 0.531
glycan array binding signal (z-score) [12]: -0.623
glycan array binding signal (z-score) (GalNAc4S6S(b1-4)GlcNAc): 0.056
glycan array binding signal (z-score) (GalNAc6S(b1-4)GlcNAc): -0.433
glycan array binding signal (z-score) (Glc(a1-4)Glc): 0.668
glycan array binding signal (z-score) [13]: 0.061
glycan array binding signal (z-score) (Glc(a1-6)Glc(a1-6)Glc): -0.684
glycan array binding signal (z-score) [14]: 1.67
glycan array binding signal (z-score) (Glc(b1-4)Glc): 0.01
